# Measured values from the supplement of paper PMC8728848.
# Some of the results follow.
# Experiments:
# Assay in all cases: glycan array binding signal (z-score within array); higher = stronger binding
# Conditions in all cases: glycan notation: IUPAC condensed, linker removed
# [1] = system: Neu5Ac(a2-3)Gal(b1-4)GlcNAc(b1-3)Gal
# How it was run: (§1)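 From the Consortium for Functional Glycomics database, 3228 arrays were curated, keeping only those whose protein sequence was available. Binding is given as a within-array Z-score averaged across arrays sharing a protein sequence and across linkers. Negative Z-scores can be read as non-binding.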
# [2] = system: Neu5Ac(a2-3)Gal(b1-4)GlcNAc(b1-3)[Neu5Ac(a2-3)Gal(b1-4)GlcNAc(b1-6)]GalNAc
# How it was run: as §1
# [3] = system: Neu5Ac(a2-3)Gal(b1-4)GlcNAc(b1-6)GalNAc
# How it was run: as §1
# [4] = system: Neu5Ac(a2-3)Gal(b1-4)GlcNAc(b1-6)[Gal(b1-3)]GalNAc
# How it was run: as §1
# [5] = system: Neu5Ac(a2-3)Gal(b1-4)GlcNAc(b1-6)[Neu5Ac(a2-3)Gal(b1-3)]GalNAc
# How it was run: as §1
# [6] = system: Neu5Ac(a2-3)Gal(b1-4)GlcNAc6S
# How it was run: as §1
# [7] = system: Neu5Ac(a2-3)Gal(b1-4)GlcNAc
# How it was run: as §1
# Neu5Ac(a2-3)Gal(b1-4)Glc = system: Neu5Ac(a2-3)Gal(b1-4)Glc
# How it was run: as §1
# [8] = system: Neu5Ac(a2-3)Gal(b1-4)[Fuc(a1-3)]GlcNAc(b1-2)Man
# How it was run: as §1
# [9] = system: Neu5Ac(a2-3)Gal(b1-4)[Fuc(a1-3)]GlcNAc(b1-3)Gal(b1-4)GlcNAc
# How it was run: as §1
# [10] = system: Neu5Ac(a2-3)Gal(b1-4)[Fuc(a1-3)]GlcNAc(b1-3)Gal(b1-4)[Fuc(a1-3)]GlcNAc(b1-3)Gal(b1-4)[Fuc(a1-3)]GlcNAc
# How it was run: as §1
# [11] = system: Neu5Ac(a2-3)Gal(b1-4)[Fuc(a1-3)]GlcNAc(b1-3)GalNAc
# How it was run: as §1
# [12] = system: Neu5Ac(a2-3)Gal(b1-4)[Fuc(a1-3)]GlcNAc(b1-3)Gal
# How it was run: as §1
# [13] = system: Neu5Ac(a2-3)Gal(b1-4)[Fuc(a1-3)]GlcNAc(b1-6)[Gal(b1-3)]GalNAc
# How it was run: as §1
# [14] = system: Neu5Ac(a2-3)Gal(b1-4)[Fuc(a1-3)]GlcNAc(b1-6)[Neu5Ac(a2-3)Gal(b1-3)]GalNAc
# How it was run: as §1
# [15] = system: Neu5Ac(a2-3)Gal(b1-4)[Fuc(a1-3)]GlcNAc6S
# How it was run: as §1
# [16] = system: Neu5Ac(a2-3)Gal(b1-4)[Fuc(a1-3)]GlcNAc
# How it was run: as §1
# [17] = system: Neu5Ac(a2-3)Gal6S(b1-4)GlcNAc
# How it was run: as §1
# [18] = system: Neu5Ac(a2-3)Gal6S(b1-4)[Fuc(a1-3)]GlcNAc
# How it was run: as §1
# [19] = system: Neu5Ac(a2-3)GalNAc(b1-4)GlcNAc
# How it was run: as §1
# Neu5Ac(a2-3)GalNAc = system: Neu5Ac(a2-3)GalNAc
# How it was run: as §1
# Neu5Ac(a2-3)Gal = system: Neu5Ac(a2-3)Gal
# How it was run: as §1
# [20] = system: Neu5Ac(a2-3)[GalNAc(b1-4)]Gal(b1-4)GlcNAc(b1-3)GalNAc
# How it was run: as §1
# [21] = system: Neu5Ac(a2-3)[GalNAc(b1-4)]Gal(b1-4)GlcNAc
# How it was run: as §1
# [22] = system: Neu5Ac(a2-3)[GalNAc(b1-4)]Gal(b1-4)Glc
# How it was run: as §1
# [23] = system: Neu5Ac(a2-3)[Neu5Ac(a2-6)]GalNAc
# How it was run: as §1
# [24] = system: Neu5Ac(a2-6)Gal(b1-3)GlcNAc(b1-3)[Gal(b1-4)GlcNAc(b1-6)]Gal(b1-4)Glc
# How it was run: as §1
# [25] = system: Neu5Ac(a2-6)Gal(b1-4)GlcNAc(b1-2)Man(a1-3)Man(b1-4)GlcNAc(b1-4)GlcNAc
# How it was run: as §1
# [26] = system: Neu5Ac(a2-6)Gal(b1-4)GlcNAc(b1-2)Man(a1-3)[Gal(b1-4)GlcNAc(b1-2)Man(a1-6)]Man(b1-4)GlcNAc(b1-4)GlcNAc
# How it was run: as §1
# [27] = system: Neu5Ac(a2-6)Gal(b1-4)GlcNAc(b1-2)Man(a1-3)[GlcNAc(b1-4)][Neu5Ac(a2-6)Gal(b1-4)GlcNAc(b1-2)Man(a1-6)]Man(b1-4)GlcNAc(b1-4)GlcNAc
# How it was run: as §1
# [28] = system: Neu5Ac(a2-6)Gal(b1-4)GlcNAc(b1-2)Man(a1-3)[Man(a1-6)]Man(b1-4)GlcNAc(b1-4)GlcNAc
# How it was run: as §1
# [29] = system: Neu5Ac(a2-6)Gal(b1-4)GlcNAc(b1-2)Man(a1-3)[Neu5Ac(a2-3)Gal(b1-4)GlcNAc(b1-2)Man(a1-6)]Man(b1-4)GlcNAc(b1-4)GlcNAc
# How it was run: as §1
substance,measurement,setting,value
MpAFP RI GFP (Marinomonas primoryensis),glycan array binding signal (z-score),[1],-0.665
same,glycan array binding signal (z-score),[2],-0.417
same,glycan array binding signal (z-score),[3],-0.342
same,glycan array binding signal (z-score),[4],2.43
same,glycan array binding signal (z-score),[5],-0.51
same,glycan array binding signal (z-score),[6],-0.6
same,glycan array binding signal (z-score),[7],0.602
same,glycan array binding signal (z-score),Neu5Ac(a2-3)Gal(b1-4)Glc,-0.373
same,glycan array binding signal (z-score),[8],-0.617
same,glycan array binding signal (z-score),[9],1.56
same,glycan array binding signal (z-score),[10],-0.039
same,glycan array binding signal (z-score),[11],1.52
same,glycan array binding signal (z-score),[12],-0.398
same,glycan array binding signal (z-score),[13],0.494
same,glycan array binding signal (z-score),[14],1.08
same,glycan array binding signal (z-score),[15],-0.524
same,glycan array binding signal (z-score),[16],-0.791
same,glycan array binding signal (z-score),[17],-0.72
same,glycan array binding signal (z-score),[18],-0.564
same,glycan array binding signal (z-score),[19],-0.461
same,glycan array binding signal (z-score),Neu5Ac(a2-3)GalNAc,2.97
same,glycan array binding signal (z-score),Neu5Ac(a2-3)Gal,-0.561
same,glycan array binding signal (z-score),[20],-0.407
same,glycan array binding signal (z-score),[21],-0.664
same,glycan array binding signal (z-score),[22],-0.635
same,glycan array binding signal (z-score),[23],2.42
same,glycan array binding signal (z-score),[24],-0.277
same,glycan array binding signal (z-score),[25],0.699
same,glycan array binding signal (z-score),[26],1.1
same,glycan array binding signal (z-score),[27],-0.435
same,glycan array binding signal (z-score),[28],0.118
same,glycan array binding signal (z-score),[29],-0.544

# 2 records picked at random from the list so far:
substance,measurement,setting,value
MpAFP RI GFP (Marinomonas primoryensis),glycan array binding signal (z-score),[20],-0.407
same,glycan array binding signal (z-score),[9],1.56
